Reference: PubChem BioAssay AID2685 (National Center for Advancing Translational Sciences (NCATS), 2010)
The list shows a part of the results. Shown are side measurements of this screen, not its main read-out; they come without a call. Compounds called inactive in the main read-out are mostly missing here. Words in brackets tell the shape of the fitted curve; partial curves, single points and poor fits give uncertain potencies.

Experiment: qHTS Assay for Lipid Storage Modulators in Drosophila S3 Cells;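 for cell number change: cells counted by Cell Tracker Red CMTPX staining in the red channel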
Settings: BODIPY lipid droplet fluorescence, 18-24 h; for cell number change: measured here: cell count max response, cells fed with added oleic acid
Method in brief: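 Laser-scanning cytometry quantifies lipid droplet accumulation (500–530 nm total intensity; droplet/cell object ratio) in oleic acid-fed (400 uM added) Drosophila S3 cells treated with a concentration series. 20 uM Triacsin C defined 100% inhibition.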

[1] = measured here: lipid fluorescence (Fed channel) AC50, cells fed with added oleic acid
[2] = measured here: cell number channel AC50, cells fed with added oleic acid

| Compound | cell number change [%] | AC50 [1] | AC50 [2] |
| --- | --- | --- | --- |
| O=C(Cn1nnc(-c2ccccc2NC(=O)c2ccccc2F)n1)NC1CCCC1 | 28.1 | 32600 nM [rising, single point] | – |
| COc1ccc(C(=O)COC(=O)c2nc3nccc(C)n3n2)cc1F | -10 | 32600 nM [falling, single point] | – |
| O=C1NN(c2ccccc2)C(=O)/C1=C/c1coc2ccccc2c1=O | 3.83 | 18400 nM [falling, single point] | – |
| CC(C)c1ccc(NS(=O)(=O)c2ccc3[nH]cc(C(=O)N4CCC(C(N)=O)CC4)c(=O)c3c2)cc1 | -18.9 | 32600 nM [falling, single point] | – |
| NC(=O)c1ccc(C2SCC(=O)N2CCc2ccccc2)cc1 (configuration not stated) | -6.74 | 651 nM [falling, single point] | – |
| Cc1cccc(OCC(=O)N2CCN(C(=O)CCC3CCCC3)CC2)c1 | 64.6 | 16400 nM [rising, partial curve] | 13000 nM [rising, partial curve] |
| O=C(Nc1nnc(S(=O)(=O)N2CCCCCC2)s1)c1ccccc1 | 8.68 | – | – |
| O=C(C1=C[C@@H](c2ccccc2)C[C@@H](OCc2ccc(CO)cc2)O1)N1CCN(Cc2ccc3c(c2)OCO3)CC1 | -30.3 | 20600 nM [falling, single point] | 32600 nM [falling, single point] |
| COc1ccccc1NC(=O)Cn1cnc2c(oc3nc4c(cc32)CCCC4)c1=O | -15 | 103 nM [falling, full curve, poor fit] | – |
| CCOC(=O)C1CCCN(S(=O)(=O)c2ccc3ccccc3c2)C1 (configuration not stated) | 4.55 | 3260 nM [rising, partial curve] | – |
| CCOC(=O)CS(=O)(=O)c1nc(-c2ccccc2)cc(C(F)(F)F)n1 | -88.3 | 517 nM [falling, full curve, poor fit] | 20600 nM [falling, partial curve] |
| Oc1c(C(c2cccs2)N2CCN(c3ccc(F)cc3)CC2)sc2ncnn12 (configuration not stated) | 16.4 | 820 nM [falling, full curve, poor fit] | – |
| COc1cc(C(=O)C(=O)c2ccc(O)c(OC)c2)ccc1O | 17.8 | 4.61 nM [rising, full curve, poor fit] | – |
| Clc1cccc(-c2nn3c(COc4ccccc4)nnc3s2)c1 | 4.97 | 4.61 nM [falling, full curve, poor fit] | – |
| O=C(O)CNS(=O)(=O)c1cc(Cl)c(Cl)cc1Cl | 0.0781 | 16400 nM [falling, single point] | – |
| COc1ccc([C@@H]2[C@@H]3C(=O)N(C(C)(C)C)C(=O)[C@@H]3[C@]3(Cc4ccc(Cl)cc4)C(=O)N(c4ccc(C)cc4)C(=O)N23)cc1 | 10.4 | 580 nM [rising, single point] | – |
| c1ccc(-c2cn3c4c(sc3n2)CCCC4)cc1 | – | – | 1460 nM [rising, partial curve] |
| C/C(=N\NC(=O)c1ccc2c(c1)OCO2)c1ccc2c(c1)OCO2 | 1.88 | 130 nM [falling, full curve, poor fit] | 130 nM [falling, full curve, poor fit] |
| CCN(CC)C(=O)COc1ccc(-c2ccccc2)cc1 | 24.2 | – | 146 nM [falling, full curve, poor fit] |

Whole records as entered above:
`CCOC(=O)CS(=O)(=O)c1nc(-c2ccccc2)cc(C(F)(F)F)n1` reads cell number change [%]: -88.3; AC50 [1]: 517 nM [falling, full curve, poor fit]; AC50 [2]: 20600 nM [falling, partial curve]
`O=C(Nc1nnc(S(=O)(=O)N2CCCCCC2)s1)c1ccccc1` reads cell number change [%]: 8.68
`c1ccc(-c2cn3c4c(sc3n2)CCCC4)cc1` reads AC50 [2]: 1460 nM [rising, partial curve]

Remaining list, next part:

| Compound | cell number change [%] | AC50 [1] | AC50 [2] |
| --- | --- | --- | --- |
| Cc1ccc2cc(C#N)c(SCC(=O)NCC3CCCO3)nc2c1 (configuration not stated) | 9 | – | – |
| CC(OC(=O)Cn1cnc2c1c(=O)n(C)c(=O)n2C)C(=O)N(C)c1ccccc1 (configuration not stated) | -21.5 | 8200 nM [falling, partial curve, poor fit] | – |
| O=C(Nc1nc2c(Cl)cccc2s1)c1ccc(Br)o1 | -28.4 | – | – |
| O=C(Nc1ccc(C(F)(F)F)cc1)C1CCCCN1S(=O)(=O)c1ccccc1 (configuration not stated) | -1.5 | 366 nM [rising, partial curve, poor fit] | – |
| C=CCOc1ccc(Br)cc1/C=N/O | -25.4 | 116 nM [falling, full curve, poor fit] | – |
| CCN(CC)c1nc(-c2ccccn2)nc(-c2ccccc2)c1C#N | -4.56 | 2590 nM [falling, single point] | – |
| O=C(c1cc2c(s1)-c1ccccc1S(=O)(=O)C2)N1CCN(Cc2ccccc2)CC1 | 35.7 | 1640 nM [rising, partial curve] | 651 nM [rising, full curve] |
| CCOC(=O)C1CCCN(C(=O)Cn2cnc3sc(C)c(S(=O)(=O)N4CCOCC4)c3c2=O)C1 (configuration not stated) | – | 1160 nM [falling, single point] | – |
| O=C(N/N=C/c1cccs1)c1ccc(NC(=O)c2ccccc2Cl)cc1 | -16.5 | 16400 nM [falling, single point] | – |
| O=C(NC1CCCCC1)c1ccc(S(=O)(=O)NCc2ccco2)cc1 | -5.69 | 25900 nM [rising, single point] | – |
| O=C(CCCc1ccccc1)Nc1ccnn1C1CCN(Cc2ccccc2)CC1 | -24.1 | 1160 nM [rising, single point] | – |
| Cc1onc(-c2c(F)cccc2Cl)c1C(=O)NC(=S)Nc1c(C)n(C)n(-c2ccccc2)c1=O | 104 | – | 23100 nM [rising, single point] |
| CC(C)OC(=O)CSc1nc2c(c(C3CC=CCC3)c1C#N)CCC2 (configuration not stated) | 16.4 | – | – |
| CC(=O)Nc1ccc2nc(NC(=O)c3ccc([N+](=O)[O-])o3)sc2c1 | 2.07 | 20600 nM [falling, single point] | – |
| COc1ccc(C(=O)N2CCN(c3ccc(NC(=O)c4cccs4)cc3)CC2)cc1 | -14.7 | 20600 nM [falling, single point] | – |
| NC(N)=N/N=C/c1ccc2cccc(OCc3ccccc3)c2n1 | -53 | – | – |
| COCCNC(=O)C(c1ccc(C)cc1)N(C(=O)CCC(=O)Nc1ccccn1)C1CCCCC1 (configuration not stated) | 2.56 | 4.61 nM [rising, full curve, poor fit] | – |
| CC(C)(C)OC(=O)C(C)(C)Sc1nnc(N)s1 | 9.73 | – | 164 nM [falling, full curve, poor fit] |
